From patent US20210128684A1
No constants are given. Whether binding was seen depends on the method and setting. Some results given as binding are weak or reduced against the parent protein; the word gives no strength. Tags and fused reporters may be left off the sequences shown.

Amino acid sequences for entries named in this document (tags omitted). A change or cut given only in a name is not applied to a line headed by its entry. Chains listed by the source or under a name are the forms on record and can include a tag or linker.
rhOPN (recombinant human osteopontin, cod. 1433-OP-050/CF, R&D system) (P10451, form named): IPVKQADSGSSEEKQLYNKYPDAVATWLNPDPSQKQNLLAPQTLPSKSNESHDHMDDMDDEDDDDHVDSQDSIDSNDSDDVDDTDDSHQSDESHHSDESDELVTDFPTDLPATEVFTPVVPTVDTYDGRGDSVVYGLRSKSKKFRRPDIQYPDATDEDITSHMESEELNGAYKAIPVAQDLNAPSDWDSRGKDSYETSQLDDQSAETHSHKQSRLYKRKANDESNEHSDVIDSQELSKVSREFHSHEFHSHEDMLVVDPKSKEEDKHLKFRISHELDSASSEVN

Legend:
[1] = biological target: rhOPN (recombinant human osteopontin, cod. 1433-OP-050/CF, R&D system) (human) (UniProt P10451); experiment: ELISA, OPN coated, titrated B7h-Fc in the presence of ICOS-Fc as competitor
[2] = biological target: rhOPN (recombinant human osteopontin, cod. 1433-OP-050/CF, R&D system) (human) (UniProt P10451); experiment: pull-down, B7h-Fc bait on Sepharose, Western blot with anti-OPN
[3] = biological target: rhOPN (recombinant human osteopontin, cod. 1433-OP-050/CF, R&D system) (human) (UniProt P10451); experiment: ELISA, OPN coated (figure legend)
[4] = biological target: rhOPN (recombinant human osteopontin, cod. 1433-OP-050/CF, R&D system) (human) (UniProt P10451); experiment: ELISA and pull-down of FIG. 6, as told in the description
[5] = biological target: rhOPN (recombinant human osteopontin, cod. 1433-OP-050/CF, R&D system) (human) (UniProt P10451); experiment: ELISA, OPN coated, titrated B7h-Fc, anti-IgG1 mAb detection

Measured: binding

B1: rhB7h2-Fc (recombinant soluble B7h-Fc, cod. 165-B7-100, R&D system) (Fc fusion, human, UniProt O75144 19-258, looked up, not shown: a dimerising Fc or GST)
chain: DTQEKEVRAMVGSDVELSCACPEGSRFDLNDVYVYWQTSESKTVVTYHIPQNSSLENVDSRYRNRALMSPAGMLRGDFSLRLFNVTPQDEQKFHCLVLSQSLGFQEVLSVEVTLHVAANFSVPVVSAPHSPSQDELTFTCTSINGYPRPNVYWINKTDNSLLDQALQNDTVFLNMRGLYDVVSVLRIARTPSVNIGCCIENVLLQQNLTVGSQTGNDIGERDKITENPVSTGEKNAATWS
binds: all assays above
